{"source": "paper PMC5996148", "experiment_in_all_cases": "protein microarray (ProtoArray v5.0), streptavidin-Alexa Fluor 647", "conditions_in_all_cases": "3'-biotin; 20 mM Tris (pH 7.5), 5 mM MgCl2, 100 mM KCl, 0.1% Tween-20, A/T-rich and random oligonucleotide blockers; temperature not stated; high values mean tight binding", "key": {"ARL6 (human)": {"tested_on": "ARL6 (human)"}, "ARL6IP2 (human)": {"tested_on": "ARL6IP2 (human)"}, "ARL8B (human)": {"tested_on": "ARL8B (human)"}, "ARL9 (human)": {"tested_on": "ARL9 (human)"}, "ARMC1": {"biological_target": "T1, ARMC1 (UniProt Q9NVT9)", "T1 sequence": "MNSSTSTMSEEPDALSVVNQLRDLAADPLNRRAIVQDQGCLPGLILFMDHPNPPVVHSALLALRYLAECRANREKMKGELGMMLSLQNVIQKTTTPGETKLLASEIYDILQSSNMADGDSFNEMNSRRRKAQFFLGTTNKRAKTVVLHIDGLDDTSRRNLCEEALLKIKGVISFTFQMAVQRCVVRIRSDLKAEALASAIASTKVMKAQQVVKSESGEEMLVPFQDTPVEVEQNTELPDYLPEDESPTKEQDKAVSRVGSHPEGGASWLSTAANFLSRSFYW"}, "ARMC7 (human)": {"tested_on": "ARMC7 (human)"}, "ARMC8 (human)": {"tested_on": "ARMC8 (human)"}, "ARPC5": {"biological_target": "ARPC5 (UniProt O15511)"}, "ARRDC3 (human)": {"tested_on": "ARRDC3 (human)"}, "ART4 (human)": {"tested_on": "ART4 (human)"}}, "note": "The other results are listed elsewhere or left out. For some of these results: The exact form of the protein is not confirmed."}
{"sequence": "GGGAGGCTGAGGCAGG [G4-1 biotinylated (PQS2)]", "values": [{"measurement": "binding signal", "setting": "ARL6 (human)", "result": -0.345, "unit": "z-score"}, {"measurement": "binding signal", "setting": "ARL6IP2 (human)", "result": -0.312, "unit": "z-score"}, {"measurement": "binding signal", "setting": "ARL8B (human)", "result": -0.326, "unit": "z-score"}, {"measurement": "binding signal", "setting": "ARL9 (human)", "result": -0.336, "unit": "z-score"}, {"measurement": "binding signal", "setting": "ARMC1", "result": -0.28, "unit": "z-score"}, {"measurement": "binding signal", "setting": "ARMC7 (human)", "result": -0.325, "unit": "z-score"}, {"measurement": "binding signal", "setting": "ARMC8 (human)", "result": -0.307, "unit": "z-score"}, {"measurement": "binding signal", "setting": "ARPC5", "result": -0.299, "unit": "z-score"}, {"measurement": "binding signal", "setting": "ARRDC3 (human)", "result": -0.323, "unit": "z-score"}, {"measurement": "binding signal", "setting": "ART4 (human)", "result": -0.266, "unit": "z-score"}]}
